The text below walks through data of PubChem BioAssay AID720551 (National Center for Advancing Translational Sciences (NCATS), 2013).

Chains of the proteins cited; added tags and fusions are not shown. Lines headed by an entry give the natural chain unless they say otherwise; changes in a name come on top.
UniProt Q12809: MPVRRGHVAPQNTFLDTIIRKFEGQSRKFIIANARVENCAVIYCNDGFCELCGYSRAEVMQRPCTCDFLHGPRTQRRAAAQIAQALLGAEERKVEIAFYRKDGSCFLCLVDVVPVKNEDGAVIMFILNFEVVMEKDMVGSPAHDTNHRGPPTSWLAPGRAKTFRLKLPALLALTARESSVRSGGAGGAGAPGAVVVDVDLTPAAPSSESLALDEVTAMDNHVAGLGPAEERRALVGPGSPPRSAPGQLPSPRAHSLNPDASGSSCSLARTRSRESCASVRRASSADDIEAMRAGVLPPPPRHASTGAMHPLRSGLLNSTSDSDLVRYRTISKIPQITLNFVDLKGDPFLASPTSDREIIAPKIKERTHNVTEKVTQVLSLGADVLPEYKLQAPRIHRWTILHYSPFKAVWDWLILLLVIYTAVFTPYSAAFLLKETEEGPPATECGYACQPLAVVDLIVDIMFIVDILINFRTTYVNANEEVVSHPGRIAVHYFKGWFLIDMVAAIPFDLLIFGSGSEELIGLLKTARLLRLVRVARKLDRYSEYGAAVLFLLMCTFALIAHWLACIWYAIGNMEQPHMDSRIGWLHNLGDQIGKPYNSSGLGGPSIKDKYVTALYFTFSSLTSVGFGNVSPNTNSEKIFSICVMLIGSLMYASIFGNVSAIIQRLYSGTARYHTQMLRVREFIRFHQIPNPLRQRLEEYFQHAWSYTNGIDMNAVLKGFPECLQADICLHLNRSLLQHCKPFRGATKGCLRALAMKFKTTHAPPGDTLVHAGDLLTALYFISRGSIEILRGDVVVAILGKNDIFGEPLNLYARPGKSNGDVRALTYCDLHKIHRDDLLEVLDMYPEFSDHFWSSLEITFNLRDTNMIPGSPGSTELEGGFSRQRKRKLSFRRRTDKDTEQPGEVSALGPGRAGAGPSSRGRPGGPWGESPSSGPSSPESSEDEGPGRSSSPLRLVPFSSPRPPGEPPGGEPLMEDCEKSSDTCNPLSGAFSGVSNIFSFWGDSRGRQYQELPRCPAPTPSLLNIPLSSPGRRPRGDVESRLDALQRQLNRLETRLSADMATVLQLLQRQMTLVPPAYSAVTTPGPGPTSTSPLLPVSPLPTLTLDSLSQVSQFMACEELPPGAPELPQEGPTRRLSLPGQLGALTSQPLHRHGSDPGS

Molecules are shown by their SMILES. The entries are a selection whose mix differs from that of the whole data set. Active and inactive are the calls of the source.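 How the source made its calls: active means maximum activity change below -70%; inconclusive means maximum activity change between -70% and -50%; inactive means maximum activity change above -50%.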
On the % scale 0 is the no-effect control and ±100 the full control effect.

This test concerns the target Voltage-gated inwardly rectifying potassium channel KCNH2 (Homo sapiens) (UniProt Q12809). Kind of test: qHTS for Inhibitors of KCHN2 3.1: Wildtype qHTS. The settings on record: U2OS, BacMam KCNH2, thallium flux FluxOr; at 1.84 µM; hits give low values. From the text:
Many antipsychotic drugs that inhibit the neurotransmitter dopamine also bind to hERG1 channel which might help explain their antipsychotic activity but also produces cardiac side effects. The discovery of the novel KCNH2 3.1 isoform offers a potential new target for the development of antipsychotic drugs without cardiac side effects. This proposal will use a high throughput thallium flux assay developed for KCNH2 to screen compounds that modulate the activity of KCNH2 3.1. The wild type KCNH2 channel will also be screened in parallel to help define the selective modulators of this KCNH2 3.1 potassium channel. The resulting compounds will be validated in electrophysiology experiments. The availability of animal models will allow future testing in vivo for effects on memory and other aspects of animal physiology linked with psychosis. NIH Chemical Genomics Center [NCGC] NIH Molecular Libraries Probe Centers Network [MLPCN] MLPCN Grant: MH096539 Assay Submitter (PI): James Barrow, Johns Hopkins University, Lieber Institute for Brain Development
U2OS cells were resuspended in cell media containing 10% fetal calf serum (FCS) at a concentration of 2 million cells / mL. […] A stimulation buffer was added to the plate and the second kinetic read (2 min) was obtained. The rate constant was calculated from the kinetic reads and normalized to the positive and negative DMSO controls.
(In general: qHTS replaces the single test concentration by a dilution series.)
In the case of `COc1ccccc1C(=O)Nc1ccnn1C1CCN(Cc2cc(C)c(C)cc2C)CC1`, the activity change is active: -101%.
